Results from the supplement of paper PMC8728848.
This is one part of the list.

Tests used:
Test in all cases: glycan array binding signal (z-score within array); higher = stronger binding
Conditions in all cases: glycan notation: IUPAC condensed, linker removed
[1] = target: Neu5Ac(a2-3)Gal(b1-4)GlcNAc(b1-2)Man(a1-3)[Neu5Ac(a2-6)Gal(b1-4)GlcNAc(b1-2)Man(a1-6)]Man(b1-4)GlcNAc(b1-4)GlcNAc
In short: (§1)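 Negative Z-scores can be read as non-binding. The Z-score is calculated within each array and then averaged across arrays of one protein sequence at different concentrations or buffers and across linkers. Arrays, 3228 in all, were curated from the Consortium for Functional Glycomics database and kept only where the protein sequence was available.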

[2] = target: Neu5Ac(a2-3)Gal(b1-4)GlcNAc(b1-2)[Neu5Ac(a2-3)Gal(b1-4)GlcNAc(b1-4)]Man(a1-3)[GlcNAc(b1-4)][Neu5Ac(a2-3)Gal(b1-4)GlcNAc(b1-2)[Neu5Ac(a2-3)Gal(b1-4)GlcNAc(b1-6)]Man(a1-6)]Man(b1-4)GlcNAc(b1-4)GlcNAc
In short: as §1

[3] = target: Neu5Ac(a2-3)Gal(b1-4)GlcNAc(b1-2)[Neu5Ac(a2-3)Gal(b1-4)GlcNAc(b1-4)]Man(a1-3)[GlcNAc(b1-4)][Neu5Ac(a2-3)Gal(b1-4)GlcNAc(b1-4)Man(a1-6)]Man(b1-4)GlcNAc(b1-4)GlcNAc
In short: as §1

[4] = target: Neu5Ac(a2-3)Gal(b1-4)GlcNAc(b1-2)[Neu5Ac(a2-3)Gal(b1-4)GlcNAc(b1-6)]Man(a1-6)[Neu5Ac(a2-3)Gal(b1-4)GlcNAc(b1-2)Man(a1-3)][GlcNAc(b1-4)]Man(b1-4)GlcNAc(b1-4)GlcNAc
In short: as §1

[5] = target: Neu5Ac(a2-3)Gal(b1-4)GlcNAc(b1-3)Gal
In short: as §1

[6] = target: Neu5Ac(a2-3)Gal(b1-4)GlcNAc(b1-3)Gal(b1-3)GlcNAc
In short: as §1

[7] = target: Neu5Ac(a2-3)Gal(b1-4)GlcNAc(b1-3)Gal(b1-4)GlcNAc
In short: as §1

[8] = target: Neu5Ac(a2-3)Gal(b1-4)GlcNAc(b1-3)Gal(b1-4)GlcNAc(b1-2)Man(a1-3)[Neu5Ac(a2-3)Gal(b1-4)GlcNAc(b1-3)Gal(b1-4)GlcNAc(b1-2)Man(a1-6)]Man(b1-4)GlcNAc(b1-4)GlcNAc
In short: as §1

[9] = target: Neu5Ac(a2-3)Gal(b1-4)GlcNAc(b1-3)Gal(b1-4)GlcNAc(b1-3)Gal(b1-4)GlcNAc
In short: as §1

[10] = target: Neu5Ac(a2-3)Gal(b1-4)GlcNAc(b1-3)Gal(b1-4)GlcNAc(b1-3)Gal(b1-4)GlcNAc(b1-2)Man(a1-3)[Neu5Ac(a2-3)Gal(b1-4)GlcNAc(b1-3)Gal(b1-4)GlcNAc(b1-3)Gal(b1-4)GlcNAc(b1-2)Man(a1-6)]GalNAc
In short: as §1

[11] = target: Neu5Ac(a2-3)Gal(b1-4)GlcNAc(b1-3)Gal(b1-4)GlcNAc(b1-3)GalNAc
In short: as §1

[12] = target: Neu5Ac(a2-3)Gal(b1-4)GlcNAc(b1-3)Gal(b1-4)GlcNAc(b1-3)[Neu5Ac(a2-3)Gal(b1-4)GlcNAc(b1-3)Gal(b1-4)GlcNAc(b1-6)]GalNAc
In short: as §1

[13] = target: Neu5Ac(a2-3)Gal(b1-4)GlcNAc(b1-3)Gal(b1-4)GlcNAc(b1-6)[Gal(b1-3)]GalNAc
In short: as §1

[14] = target: Neu5Ac(a2-3)Gal(b1-4)GlcNAc(b1-3)Gal(b1-4)[Fuc(a1-3)]GlcNAc
In short: as §1

[15] = target: Neu5Ac(a2-3)Gal(b1-4)GlcNAc(b1-3)GalNAc
In short: as §1

[16] = target: Neu5Ac(a2-3)Gal(b1-4)GlcNAc(b1-3)[Neu5Ac(a2-3)Gal(b1-4)GlcNAc(b1-6)]GalNAc
In short: as §1

[17] = target: Neu5Ac(a2-3)Gal(b1-4)GlcNAc(b1-6)GalNAc
In short: as §1

[18] = target: Neu5Ac(a2-3)Gal(b1-4)GlcNAc(b1-6)[Gal(b1-3)]GalNAc
In short: as §1

[19] = target: Neu5Ac(a2-3)Gal(b1-4)GlcNAc(b1-6)[Neu5Ac(a2-3)Gal(b1-3)]GalNAc
In short: as §1

[20] = target: Neu5Ac(a2-3)Gal(b1-4)GlcNAc6S
In short: as §1

[21] = target: Neu5Ac(a2-3)Gal(b1-4)[Fuc(a1-3)]GlcNAc
In short: as §1

[22] = target: Neu5Ac(a2-3)Gal(b1-4)[Fuc(a1-3)]GlcNAc(b1-2)Man
In short: as §1

[23] = target: Neu5Ac(a2-3)Gal(b1-4)[Fuc(a1-3)]GlcNAc(b1-3)Gal
In short: as §1

[24] = target: Neu5Ac(a2-3)Gal(b1-4)[Fuc(a1-3)]GlcNAc(b1-3)Gal(b1-4)GlcNAc
In short: as §1

[25] = target: Neu5Ac(a2-3)Gal(b1-4)[Fuc(a1-3)]GlcNAc(b1-3)Gal(b1-4)[Fuc(a1-3)]GlcNAc(b1-3)Gal(b1-4)[Fuc(a1-3)]GlcNAc
In short: as §1

[26] = target: Neu5Ac(a2-3)Gal(b1-4)[Fuc(a1-3)]GlcNAc(b1-3)GalNAc
In short: as §1

[27] = target: Neu5Ac(a2-3)Gal(b1-4)[Fuc(a1-3)]GlcNAc(b1-6)[Gal(b1-3)]GalNAc
In short: as §1

[28] = target: Neu5Ac(a2-3)Gal(b1-4)[Fuc(a1-3)]GlcNAc(b1-6)[Neu5Ac(a2-3)Gal(b1-3)]GalNAc
In short: as §1

[29] = target: Neu5Ac(a2-3)Gal(b1-4)[Fuc(a1-3)]GlcNAc6S
In short: as §1

[30] = target: Neu5Ac(a2-3)Gal6S(b1-4)GlcNAc
In short: as §1

[31] = target: Neu5Ac(a2-3)Gal6S(b1-4)[Fuc(a1-3)]GlcNAc
In short: as §1

[32] = target: Neu5Ac(a2-3)GalNAc
In short: as §1

[33] = target: Neu5Ac(a2-3)GalNAc(b1-4)GlcNAc
In short: as §1

[34] = target: Neu5Ac(a2-3)[GalNAc(b1-4)]Gal(b1-4)Glc
In short: as §1

[35] = target: Neu5Ac(a2-3)[GalNAc(b1-4)]Gal(b1-4)GlcNAc
In short: as §1

[36] = target: Neu5Ac(a2-3)[GalNAc(b1-4)]Gal(b1-4)GlcNAc(b1-3)GalNAc
In short: as §1

[37] = target: Neu5Ac(a2-3)[Neu5Ac(a2-6)]GalNAc
In short: as §1

[38] = target: Neu5Ac(a2-6)Gal
In short: as §1

[39] = target: Neu5Ac(a2-6)Gal(b1-3)GlcNAc(b1-3)[Gal(b1-4)GlcNAc(b1-6)]Gal(b1-4)Glc
In short: as §1

[40] = target: Neu5Ac(a2-6)Gal(b1-4)Glc
In short: as §1

[41] = target: Neu5Ac(a2-6)Gal(b1-4)GlcNAc
In short: as §1

[42] = target: Neu5Ac(a2-6)Gal(b1-4)GlcNAc(b1-2)Man
In short: as §1

[43] = target: Neu5Ac(a2-6)Gal(b1-4)GlcNAc(b1-2)Man(a1-3)Man(b1-4)GlcNAc(b1-4)GlcNAc
In short: as §1

[44] = target: Neu5Ac(a2-6)Gal(b1-4)GlcNAc(b1-2)Man(a1-3)[Gal(b1-4)GlcNAc(b1-2)Man(a1-6)]Man(b1-4)GlcNAc(b1-4)GlcNAc
In short: as §1

[45] = target: Neu5Ac(a2-6)Gal(b1-4)GlcNAc(b1-2)Man(a1-3)[GlcNAc(b1-2)Man(a1-6)]Man(b1-4)GlcNAc(b1-4)GlcNAc
In short: as §1

B1: OS9-MRH (Homo sapiens), Q13438 (protein)
chain: IPELLSPMRDAPCLLKTKDWWTYEFCYGRHIQQYHMEDSEIKGEVLYLGYYQSAFDWDDETAKASKQHRLKRYHSQTYGNGSKCDLNGRPREAEVRFLCDEGAGISGDYIDRVDEPLSCSYVLTIRTPRLCPHPLLRPPPSAAPQAI
glycan array binding signal (z-score) [1]: -0.346
glycan array binding signal (z-score) [2]: -0.218
glycan array binding signal (z-score) [3]: 0.322
glycan array binding signal (z-score) [4]: -0.089
glycan array binding signal (z-score) [5]: 0.293
glycan array binding signal (z-score) [6]: -0.607
glycan array binding signal (z-score) [7]: -1.25
glycan array binding signal (z-score) [8]: 0.816
glycan array binding signal (z-score) [9]: -0.435
glycan array binding signal (z-score) [10]: -0.519
glycan array binding signal (z-score) [11]: -0.111
glycan array binding signal (z-score) [12]: 0.661
glycan array binding signal (z-score) [13]: -0.547
glycan array binding signal (z-score) [14]: 1.27
glycan array binding signal (z-score) [15]: -0.031
glycan array binding signal (z-score) [16]: -0.105
glycan array binding signal (z-score) [17]: -0.175
glycan array binding signal (z-score) [18]: -1.17
glycan array binding signal (z-score) [19]: -1.21
glycan array binding signal (z-score) [20]: -0.094
glycan array binding signal (z-score) [21]: 0.494
glycan array binding signal (z-score) [22]: -0.503
glycan array binding signal (z-score) [23]: -0.415
glycan array binding signal (z-score) [24]: -0.211
glycan array binding signal (z-score) [25]: -1.29
glycan array binding signal (z-score) [26]: 0.151
glycan array binding signal (z-score) [27]: -0.705
glycan array binding signal (z-score) [28]: 0.08
glycan array binding signal (z-score) [29]: -1.32
glycan array binding signal (z-score) [30]: -1.42
glycan array binding signal (z-score) [31]: -0.941
glycan array binding signal (z-score) [32]: -0.948
glycan array binding signal (z-score) [33]: -0.392
glycan array binding signal (z-score) [34]: -0.332
glycan array binding signal (z-score) [35]: -0.607
glycan array binding signal (z-score) [36]: -1.17
glycan array binding signal (z-score) [37]: -0.673
glycan array binding signal (z-score) [38]: -0.293
glycan array binding signal (z-score) [39]: 0.768
glycan array binding signal (z-score) [40]: -1.05
glycan array binding signal (z-score) [41]: -0.753
glycan array binding signal (z-score) [42]: -1.05
glycan array binding signal (z-score) [43]: 0.674
glycan array binding signal (z-score) [44]: -0.67
glycan array binding signal (z-score) [45]: 0.275
